From the supplement of paper PMC7024190 come the findings set out here.

SMILES strings stand for the structures. Structures can show the parent of a compound that is named as a salt. The list shows a part of the results. This data set is noisy: repeats of one test often differ as much as different tests do.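 Human embryonic kidney cells were transiently transfected with a plasmid bearing a Renilla luciferase gene under the HSV-TK promoter. This first-round screen tests roughly ten thousand compounds for ones that increase reporter output.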

The test concerns HEK 293FT. Description: log relative Renilla luciferase luminescence (reporter expression vs reference, reference not stated) (log (base not stated)); higher = higher recombinant reporter expression. To be noted: 10 µM; time after transfection 48 h. The procedure: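 HEK 293FT cells transiently transfected with pRL-TK (Renilla luciferase) were treated with compounds at 10 uM and luminescence was read about 42 h later. Values are log relative Renilla luminescence (log base and reference not stated). Single-pass screen; 2080 natural products library.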
With `COc1c(O)cc(O)c2c1OC(c1ccccc1O)CC2=O` (stereo not given) [2',5,7-Trihydroxy-8-methoxyflavanone], the log is -0.499.

For `Oc1cc(O)cc(CCc2ccccc2)c1` [Dihydropinosylvin], the log was found to be 0.852.

For `CC[C@H](CC[C@@H](C)[C@H]1CC[C@H]2[C@@H]3[C@H](O)C=C4C[C@@H](O)CC[C@]4(C)[C@H]3CC[C@]12C)C(C)C` [Ikshusterol], the log came to 0.0647.

In the case of `O=C(O)/C=C/C(=O)O` [Fumaric acid], the log was -0.152.

Regarding `Cc1cccc2c3c(ccc12)C1=C(C(=O)C3=O)[C@@H](C)CO1` [15,16-Dihydrotanshinone I], the log was -0.2.

Take `CC(=O)Oc1cc(OC(C)=O)c2c(=O)cc(-c3ccccc3)oc2c1` [5,7-Diacetoxyflavone]: the log turned out to be 0.0322.

As to `CC(=O)Oc1cc(O)c2c(c1)O[C@H](c1ccccc1)CC2=O` [Pinocembrin 7-acetate], the log was -0.112.

Consider `CC1(C)CC[C@]2(C)CC[C@]3(C)C(=C2C1)CC[C@@H]1[C@@]2(C)CCC(=O)C(C)(C)[C@@H]2CC[C@]13C` [13(18)-Oleanen-3-one], for which the log was 0.0813.

For `C=C(CO)[C@@H]1CC[C@H]2[C@]3(CC[C@]4(C)[C@@H]([C@H](C)CCC=C(C)C)CC[C@@]24C)C[C@]13CCC(=O)O` [Secaubryenol], the log was found to be 0.0997.

As for `CC1OC(OC2C(OCCc3ccc(O)c(O)c3)OC(CO)C(O)C2OC(=O)C=Cc2ccc(O)c(O)c2)C(O)C(O)C1O` (stereo not given) [Magnoloside A], the log was -0.106.

With `COc1cc(OC)c2ccc(=O)oc2c1OC` [5,7,8-Trimethoxycoumarin], the log was -0.174.

With `COc1c(OC)c(O)c2c(=O)cc(-c3ccc(O)cc3)oc2c1O` [Isothymusin], the log was -0.14.

Consider `COc1cc([C@@H]2Oc3cc(/C=C/CO)cc(OC)c3O[C@H]2CO)cc(OC)c1O` [Nitidanin], for which the log is 0.138.

As for `O=C1C[C@@H](c2cc(O)cc(O)c2)Oc2cc(O)cc(O)c21` [3',5,5',7-Tetrahydroxyflavanone], the log is -0.354.

`C=C(C)[C@H](/C=C/[C@@H](C)[C@H]1CC[C@H]2[C@@H]3CC=C4C[C@@H](O[C@@H]5O[C@H](CO)[C@@H](O)[C@H](O)[C@H]5O)CC[C@]4(C)[C@H]3CC[C@]12C)CC` [22-Dehydroclerosterol glucoside]: the log was -0.0248.

As to `Oc1ccc([C@H]2Oc3cc(O)cc(O)c3C[C@@H]2O)cc1` [(+)-Afzelechin], the log was -0.244.

For the molecule `C=CC(C)(C)c1[nH]c2ccccc2c1/C=C1\NC(=O)[C@H](C)NC1=O` [Neoechinulin A], the log was -0.222.

Regarding `COc1cc2oc(=O)ccc2cc1[C@H]1O[C@@H](O)[C@]2(C)O[C@H]12` [Dihydromicromelin B], the log was -0.466.

For the molecule `O=c1c(O)c(-c2c(O)cccc2O)oc2cc(O)cc(O)c12` [Viscidulin I], the log was -0.129.

On to `CC(=O)Oc1cc(O)c2c(c1)O[C@H](c1ccccc1)[C@@H](OC(C)=O)C2=O` [3,7-O-Diacetylpinobanksin], for which the log was found to be 0.0222.

With `C=C1CC[C@]2(C)CC[C@]3(C)[C@H](CC[C@@H]4[C@@]5(C)CC[C@H](OC(C)=O)C(C)(C)[C@@H]5CC[C@]43C)[C@H]2[C@@H]1C` [Taraxasterol acetate], the log was -0.111.

`O=C1c2c(O)cc(O)cc2OC(c2ccc(O)c(O)c2)C1O` (stereo not given) [Taxifolin]: the log is 0.062.

As for `COc1cc(O)c2c(c1)O[C@H](c1ccccc1)CC2=O` [Pinostrobin], the log was -0.111.

Take `COc1ccc(-c2cc(=O)c3c(O)c(OC)c(OC)cc3o2)cc1O` [Eupatorin]: the log is 0.129.

Consider `COc1cc([C@@H]2OC[C@@H]3[C@H]2CO[C@H]3c2ccc(O)c(OC)c2)ccc1O` [(+)-Pinoresinol], for which the log was -0.2.

With `CC1(C)CC[C@]2(C)CC[C@]3(C)C(=C2C1)CC[C@@H]1[C@@]2(C)CC[C@H](O)C(C)(C)[C@@H]2CC[C@]13C` [13(18)-Oleanen-3-ol], the log is 0.012.

For `Cc1coc2c1C(=O)C(=O)c1c-2ccc2c(C)cccc12` [Tanshinone I], the log was -0.571.

For `CC(=O)c1ccc(O)cc1` [4'-Hydroxyacetophenone], the log was -0.0581.

For `COc1c2ccoc2cc2oc(C)cc(=O)c12` [Visnagin], the log is -0.0479.

For `C=C1C(OC(C)=O)C(O)C(OC(=O)c2cccnc2)C(C)(C)C=CC(C)C(OC(C)=O)C2(O)CC(C)(OC(C)=O)C(OC(=O)c3ccccc3)C2C1OC(C)=O` (stereo not given), the log was -0.186.

For the molecule `C=C1[C@@H]2CC[C@H]3[C@@]45CO[C@](O)([C@@H](O)[C@@H]4C(C)(C)C=CC5=O)[C@]3(C2)[C@@H]1OC(C)=O` [Maoecrystal B], the log is -0.121.

Regarding `CC(=O)O[C@H]1CC[C@]2(C)[C@H]3CC[C@@]4(C)[C@@H]5[C@@H](C)[C@H](C)CC[C@]5(C)CC[C@]4(C)C3=CC[C@H]2C1(C)C` [Bauerenol acetate], the log stood at 0.134.

For the molecule `CC1=CC[C@@]23CC[C@@H]([C@@](C)(/C=C/C=C(\C)C(=O)O)OC2=O)[C@@]3(O)CC1` [Deacetylpseudolaric acid A], the log was -0.222.

On to `O=C1c2c(O)cc(O)cc2O[C@H](c2ccc(O)cc2O)[C@H]1O` [Dihydromorin], for which the log was -0.253.

For `COC(=O)C1=CO[C@@H](C)[C@H]2C[n+]3ccc4c([nH]c5ccccc54)c3C[C@H]12` [Serpentine hydrochloride], the log was -0.334.

Turning to `COC(=O)c1c[nH]c2ccccc12` [Methyl 3-indolecarboxylate], the log was 0.00611.

On to `C=C1C(=O)C2=C[C@H]1CCC(=O)[C@@]1(C)[C@H](C[C@H]2O)C(C)(C)CC[C@H]1OC(C)=O` [Kongensin A], for which the log was -0.768.

`CC1(C)CC[C@]2(C)CC=C3[C@]4(C)CC[C@H]5C(C)(C)C(=O)CC[C@]5(C)[C@H]4CC[C@@]3(C)[C@@H]2C1` [Taraxerone]: the log was found to be 0.0364.

As to `COc1cc(OC)c2ccc(=O)oc2c1C[C@@H](O)C(C)(C)O` [Isomexoticin], the log is -0.215.

Regarding `O=C1c2c(O)cc(O)cc2O[C@H](c2ccccc2)[C@H]1O` [Pinobanksin], the log was -0.184.
